# These are yes or no findings as the source states them, for the method shown. In cells and extracts the contact can be indirect. For some of these results: Binding calls can cover weak binding; strength is not graded here. Sequences can lack the tags named with a protein.
# B1: FLAG-TMEM127 (protein, UniProt O75204 1-238)
# chain: MYAPGGAGLPGGRRRRSPGGSALPKQPERSLASALPGALSITALCTALAEPAWLHIHGGTCSRQELGVSDVLGYVHPDLLKDFCMNPQTVLLLRVIAAFCFLGILCSLSAFLLDVFGPKHPALKITRRYAFAHILTVLQCATVIGFSYWASELILAQQQQHKKYHGSQVYVTFAVSFYLVAGAGGASILATAANLLRHYPTEEEEQALELLSEMEENEPYPAEYEVINQFQPPPAYTP
# Columns and labels:
# Assay in all cases: co-IP
# [1] = molecular target: GFP-SteD^1-102 (Salmonella enterica)
# [2] = molecular target: GFP-SteD^1-41 (Salmonella enterica)
# [3] = molecular target: GFP-SteD^37-102 (Salmonella enterica)
# [4] = molecular target: GFP-SteD^37-111 (Salmonella enterica)
binder,measurement,setting,value
B1,binding,[1],binds
same,binding,[2],no binding
same,binding,[3],binds weakly
same,binding,[4],binds
